Measurements published in publication PMC9239190.
For at least one entry, the source does not settle the construct or the ends of the probe. The comparison behind a weaker result is the experiment's own reference, which may not be listed here. Tags and fusion partners may be left off the protein sequences shown. At least one verdict rests on a figure or table, not on a statement of the authors.

Target: T1, AdpA (Streptomyces coelicolor) (UniProt Q9L062)
T1 sequence (looked up, limits assumed): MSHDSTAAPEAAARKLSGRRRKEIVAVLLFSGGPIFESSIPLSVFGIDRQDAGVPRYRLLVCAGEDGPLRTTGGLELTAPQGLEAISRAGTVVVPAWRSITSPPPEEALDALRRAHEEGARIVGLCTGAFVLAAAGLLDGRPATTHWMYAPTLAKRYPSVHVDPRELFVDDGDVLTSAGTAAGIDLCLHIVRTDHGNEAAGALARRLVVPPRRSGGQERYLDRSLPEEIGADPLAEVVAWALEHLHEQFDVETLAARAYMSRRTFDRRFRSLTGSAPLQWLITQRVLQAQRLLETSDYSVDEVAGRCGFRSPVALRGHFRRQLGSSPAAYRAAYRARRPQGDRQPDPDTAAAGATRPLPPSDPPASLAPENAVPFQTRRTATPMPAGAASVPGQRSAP
Assay: EMSA
Settings: EMSA: 20 mM Tris-HCl, 2 mM EDTA, 20 mM KCl, 0.5 mM DTT, pH 8.0, 30 C 20 min, 16.5-22 nM probe, recombinant protein, protein details: His tag (pET15b, text says C-terminal), probe letters rebuilt from the primers and the genome

Sequence | binding result (200 uM HSnH) | binding result (200 uM S8) | binding result (HSnH 100-200 uM) | binding result (S8 100-200 uM) | binding result (no sulfur compound) | binding result (1 mM HSnH) | binding result (1 mM S8)
ACACATCCCGCATCGGTGATTACATGGACACGTCCCAATAAGTTGAATCTCATCTGCGCCCCCGTCGAGATTCTCCGTCTCCTGGGGGCGACAATAACAGGCCTACTCAACAGATTTCAATGTGCTTGCCGTCACAAGCGATCTCCTATTGATCAAAAATTAATCAGTGCAGCGAGCTGCACTGATTAATTTTTGCTGGATTTTACCGAGAGGCAGTGGTCGAGGCTTCCGAATCAATAGAATCTGGCATTCCTGATACGGCTGGGTCC (double strand) [PactII-4 probe] | binds more weakly | binds more weakly |  |  |  |  | 
CTCATACTGCTAAGCCCCCCTCGGTGGTCGCGGCGCCCTTCACCCTTCGGGTCTGTCGCTCCAACACGTTTCCCCTCGGTCCTGCACGAGTCCCCCGCCGTAGACGGTCAAGATCGAATCTACTGTGTCCCGCCGCGCCGAGGTGGCCGGTTCGGCACTTGGGACATTGTCGACATGGCAACTTGGCGTGAAGCAGTCGATCACGAAGCGTTGCACTCCCGGGCGCCCCTGGGAAGTACGCCTTGTGTCAGTGGCCAATCCCCGTAGGGTGCGAGGGGGGCCCGAGACCCTGTCCGTGCAGGTGGAACGGGGGTTTGGGGGTGGTGAGGGGCATGGATGAGCCACGTGCGGAAGTTGGCTGAAAAGAAGCGGAA (double strand) [PadpA probe] |  |  | binds more weakly | binds more weakly | binds |  | 
GCACTCCAGTCGGTTACCCAGCCCATACCGGCGCCGTCCTCTCCCGAATCGAGGCTCCCCCACGGCGGCAGCGGCATATTCACCGCCGCCAGTTGAGGACGTTACGGAAGGTGGGCACAGCGCAACACCCCCTTCGGGCCCAATCTTGAATGGCCCGAACGGACTATGGGTAAGCGGCAGATCACCCGGGGGAGTGAGCTGGCGACATGCGCGACGATCCCGACATTCAGGTCATCTCTGTTGCGCCACAACGGACACCGATTGACACACGAGGCGGATTCGGA (double strand) [PwblA probe] | binds more weakly | binds more weakly |  |  |  | binds more weakly | binds more weakly
